The record followed here is patent US20090209435A1.

Results are given in words; binding and its absence hold for the method and conditions named. Binding seen in cells or lysates may run through a third protein. Some binding calls cover weakened binding; strength is not graded here.

The assay has as its target V5-tagged TRPM4b (human) (UniProt Q8TD43). Nature of the assay: co-immunoprecipitation from lysates of co-transfected HEK-293 cells with anti-Flag and anti-V5, Western blots probed with both antibodies. Background: A western blot detects proteins with antibodies after separation by electrophoresis.

In the case of “Flag-tagged TRPM4b (from UniProt Q8TD43 1-1214)”, the binding entry is reported as “binds”.
